Measured values published in patent publication US12648899B2, “Cosmetic salts” (TARA BRANDS EUROPE S.L.U., priority 2022, dated 2026).

Assay: Thiol recombination: reaction of the test compound with cysteine reagent, conversion to mono- and bis-adduct monitored by LC-MS
Conditions: bis-adduct, 1 eq. compound (0.02 M) + 4 eq. N-Cbz-cysteine, phosphate buffer pH=5.4, 30° C.

Structure (SMILES): NCCCOCCOCCOCCCN.O=C(O)C=CC(=O)O.O=C(O)C=CC(=O)O [Olaplex active agent]
- Conversion at 30 min (30 min): 4% bis
- Conversion at 60 min (60 min): 7% bis
- Conversion at 5 h (5 h): 18% bis
